Patent US20030082135A1, “Pathway of RANTES-mediated chemokine synthesis in astrocytes and methods of use therefor” (priority 2001, published 2003)
At least one structure is not confirmed: it was looked up by name or label, or the drawing left a doubt. Some of these results come from one statement about several compounds together.

What was measured:
[1] = test system: primary neonatal mouse astrocyte cultures; experiment: RNase protection assay (RPA) for chemokine/cytokine transcripts in astrocyte cultures; format: cell-based; settings: for concentration giving maximal levels of mRNA: 6 h
Procedure: Astrocyte isolation and culture. […] RNA isolation and RNase protection assay (RPA). […] RNase protection assays (RPA) for chemokine message were conducted with multi-probe templates according to the manufacture's protocol (RiboQuant assay kit, BD-PharMingen, San Diego, Calif.). Gels were scanned and radioactive bands quantitated using a phosphoimager (Molecular Dynamics, Sunnyvale, Calif.). Levels of uniformly expressed housekeeping genes large ribosomal subunit protein 32-3A (L32) or glyceraldehyde-3-phosphate dehydrogenase (GAPDH), were used for normalization. The value of each chemokine receptor band divided by the value of the indicated housekeeping gene band in the same sample yielded the relative intensity. Normalized receptor expression represents the ratio of the relative intensity following treatment with chemokine versus the relative intensity of medium alone. Treatment with pharmacological inhibitors. Astrocytes were washed and resuspended in serum-and insulin-free complete medium and starved overnight. Cells were treated at 37° C. for 1 h with 100 ng/ml Pertussis toxin (PTx) before addition of RANTES or IL-1. […] The cells were harvested after a 3 h incubation with RANTES; RNA was prepared and assayed by RPA.

PKA = PKA activity assay on lysates of treated astrocytes; format: cell-based, mouse; settings: 1 μM forskolin, 500 μM db-cAMP or 500 μM 8-bromo-cAMP, 1 h
Procedure: PKA activity assay. PKA activity was determined using a commercially available kit (Calbiochem, San Diego, Calif.) according to manufacturer's recommendations. Primary mouse astrocytes were grown in 6-well plates and then stimulated as described and lysed in 100 μl buffer (same buffer used for Western blotting) for 30 min. Five μl of the lysates were incubated with 20 μl PKA reaction mixture at 30° C. for 30 min. The reaction was terminated by adding 10 μl stop solution and ^32P radioactivity was counted.

CCCC(=O)Nc1ncnc2c1ncn2[C@@H]1O[C@@H]2COP(=O)(O)O[C@H]2[C@H]1OC(=O)CCC [db-cAMP, dibutyryl cAMP, reference compound]
inhibition of transcription of TNF-α, RANTES, MIP-1α, and MCP-1 ([1]; 500 μM, 1 h pretreatment, RANTES- and H-89-mediated transcription): at least 50%

C=C[C@@]1(C)CC(=O)[C@]2(O)[C@@]3(C)[C@@H](O)CCC(C)(C)[C@@H]3[C@H](O)[C@H](OC(C)=O)[C@@]2(C)O1 [forskolin, reference compound]
effect on astrocyte PKA activity (PKA): activated

COC[C@H]1OC(=O)c2coc3c2[C@@]1(C)C1=C(C3=O)[C@@H]2CCC(=O)[C@@]2(C)C[C@H]1OC(C)=O [wortmannin, reference compound]
effect on RANTES-induced chemokine message ([1]; U0126 50 μM, genistein 100 μM, wortmannin 1 μM, added 30 min prior to chemokine, 3 h RANTES): did not modulate

RANTES
concentration giving maximal levels of mRNA [1]: greater than or equal to 100 ng/ml

B1: eotaxin: recombinant mouse chemokine, RANTES-related, purchased from R&D System (protein, UniProt P48298 24-97, looked up)
Eotaxin: HPGSIPTSCCFIMTSKKIPNTLLKSYKRITNNRCTLKAIVFKTRLGKEICADPKKKWVQDATKHLDQKLQTPKP
concentration giving maximal levels of mRNA [1]: greater than or equal to 100 ng/ml
